# Assay results: US10435399B2, “HDAC6 inhibitory heterocyclic compound” (TAKEDA PHARMACEUTICAL COMPANY LIMITED, priority 2017, dated 2019)
# For at least one compound, name, drawing or mass did not settle the structure.
# Test system: acetylated tubulin in brain (hippocampus)
# Assay: Increase in acetylated tubulin in brain (hippocampus ELISA)
# Assay type: in vivo, C57BL/6J mouse
# Details: mouse hippocampus, oral 3 mg/kg, 1 h after administration, vs vehicle
# Protocol: Increase in Acetylated Tubulin in Brain
# A drug was suspended in 0.5% methyl cellulose to prepare a suspension for administration, having a concentration shown in Table 3. The suspension was orally administered into 8 to […] male C57BL/6J mouse, and after the passage of the time shown in Table 3, the brain was taken out, and hippocampus was obtained. The hippocampus was homogenized under RIPA extract (Wako) to which protease inhibitor (Thermo) and phosphatase inhibitor (Thermo) were added, and centrifuged in 15,000 g for 15 min to prepare a protein extract. The acetylated tubulin and total tubulin in the extract were detected by the following ELISA method. Tubulin antibody (Sigma) was immobilized on 96-well plate (Microlite2+, Thermo), and the plate was stored at 4° C. […] The plate was washed, HRP substrate was added thereto, and the luminescence was measured using a plate reader. The acetylated tubulin and total tubulin were quantified from logistics curve based on dilution series using the mouse hippocampus tissue extract, and the acetylated tubulin relative to total tubulin was calculated, and evaluated as an relative tubulin acetylation level. […] After F test for vehicle group and drug group, the significant difference between the two groups was analyzed by Student t-test or Welch test (indicated as * p<0.05, ** p<0.01). […]
compound,measurement,value
"CC(F)(F)C(=O)N[C@H]1[C@H](N2Cc3ncc(-c4nnc(C(F)F)o4)cc3C2=O)CCCC1(F)F [Example 598, N-((1S,6R)-6-(3-(5-(difluoromethyl)-1,3,4-oxadiazol-2-yl)-5-oxo-5,7-dihydro-6H-pyrrolo[3,4-b]pyridin-6-yl)-2,2-difluorocyclohexyl)-2,2-difluoropropanamide]",relative tubulin acetylation level (acetylated tubulin relative to total tubulin),increase in significant tubulin acetylation level was observed
